We go through two substances from PMC6960150.

Sequences of proteins named here, by UniProt entry; tags and fusion partners are left off.
UniProt Q3ZCC3: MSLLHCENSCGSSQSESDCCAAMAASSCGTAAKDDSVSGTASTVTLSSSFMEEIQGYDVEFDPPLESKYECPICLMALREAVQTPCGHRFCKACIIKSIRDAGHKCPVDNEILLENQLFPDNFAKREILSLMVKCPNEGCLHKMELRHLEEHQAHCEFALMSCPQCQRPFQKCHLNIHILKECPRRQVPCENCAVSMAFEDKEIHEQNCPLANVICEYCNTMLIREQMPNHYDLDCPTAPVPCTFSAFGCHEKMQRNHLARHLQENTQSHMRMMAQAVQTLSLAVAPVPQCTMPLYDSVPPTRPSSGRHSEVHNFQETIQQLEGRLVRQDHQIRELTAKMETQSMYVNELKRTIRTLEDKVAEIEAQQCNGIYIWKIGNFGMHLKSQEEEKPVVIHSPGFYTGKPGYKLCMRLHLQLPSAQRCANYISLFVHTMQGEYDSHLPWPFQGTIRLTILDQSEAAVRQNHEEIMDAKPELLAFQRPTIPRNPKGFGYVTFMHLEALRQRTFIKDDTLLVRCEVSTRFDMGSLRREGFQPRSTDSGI
UniProt P29128: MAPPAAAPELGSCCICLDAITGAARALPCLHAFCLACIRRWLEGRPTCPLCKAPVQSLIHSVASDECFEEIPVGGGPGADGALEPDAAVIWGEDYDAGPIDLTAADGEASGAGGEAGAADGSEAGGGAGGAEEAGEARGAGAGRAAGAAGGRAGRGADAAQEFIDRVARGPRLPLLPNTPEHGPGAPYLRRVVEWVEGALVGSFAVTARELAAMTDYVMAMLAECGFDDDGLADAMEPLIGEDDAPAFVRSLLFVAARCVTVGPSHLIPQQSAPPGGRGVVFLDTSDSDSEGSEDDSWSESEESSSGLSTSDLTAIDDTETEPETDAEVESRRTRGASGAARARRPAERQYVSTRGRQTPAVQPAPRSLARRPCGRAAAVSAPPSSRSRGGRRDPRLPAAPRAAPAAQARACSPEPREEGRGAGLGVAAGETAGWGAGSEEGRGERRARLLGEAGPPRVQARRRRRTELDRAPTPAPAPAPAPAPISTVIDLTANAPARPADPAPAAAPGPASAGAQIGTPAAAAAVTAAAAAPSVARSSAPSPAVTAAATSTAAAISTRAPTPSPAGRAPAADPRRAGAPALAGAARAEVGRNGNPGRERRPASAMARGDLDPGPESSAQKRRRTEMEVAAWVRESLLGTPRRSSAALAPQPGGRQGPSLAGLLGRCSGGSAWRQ

These are yes or no findings as the source states them, for the method shown. In cells and extracts the contact can be indirect. Some entries that bind do so weakly or less than the wild type.

Assay [1] concerns the target HA-tagged bovine TRAF6 (tumor necrosis factor receptor-associated factor 6) (bovine) (UniProt Q3ZCC3). Nature of the assay: co-IP; reverse co-IP: HEK293T co-transfected, lysed 36 h after transfection; lysate with anti-HA magnetic beads 2 h at room temperature; western blot. (In general: In western blotting, separated proteins are transferred to a membrane and probed.)
The target in assay [2] is Flag-tagged wild type BICP0 (infected cell protein 0 of bovine herpesvirus 1) (bovine herpesvirus 1 (BHV-1)) (UniProt P29128). As to the kind of experiment: co-IP; HEK293T co-transfected, lysed 36 h after transfection; lysate with anti-Flag magnetic beads 2 h at room temperature; blot with anti-HA.

In the case of “Flag-tagged wild type BICP0 (infected cell protein 0 of bovine herpesvirus 1) (from UniProt P29128 1-676)”, the binding entry in assay [1] is “binds”.

Turning to “HA-tagged bovine TRAF6 (tumor necrosis factor receptor-associated factor 6) (from UniProt Q3ZCC3 1-542)”, the binding result in assay [2] is recorded as “binds”.
